Results as given in patent US20170291905A1, “ARGININE METHYLTRANSFERASE INHIBITORS AND USES THEREOF” (Epizyme, Inc., priority 2014, published 2017).
The structures given here were assigned with low confidence; some may be wrong.

Sequences of proteins named here, by UniProt entry; tags and fusion partners are left off.
UniProt Q99873, whole entry: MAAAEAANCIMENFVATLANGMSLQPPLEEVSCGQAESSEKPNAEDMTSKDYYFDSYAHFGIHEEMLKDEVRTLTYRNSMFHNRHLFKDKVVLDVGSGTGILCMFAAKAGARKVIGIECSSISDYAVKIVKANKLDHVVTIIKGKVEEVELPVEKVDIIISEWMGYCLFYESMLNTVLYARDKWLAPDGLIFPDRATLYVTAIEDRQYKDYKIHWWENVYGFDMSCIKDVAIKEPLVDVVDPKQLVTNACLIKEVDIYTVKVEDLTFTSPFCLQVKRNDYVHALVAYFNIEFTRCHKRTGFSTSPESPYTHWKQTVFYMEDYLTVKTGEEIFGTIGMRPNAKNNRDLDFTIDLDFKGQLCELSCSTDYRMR

Target: PRMT1 (Homo sapiens, UniProt Q99873)
Assay: RKO methylation assay, In Cell Western (ICW) for mono-methyl arginine and DNA content
Type: cell-based
Details: RKO cells, 72 hours, mono-methyl arginine signal normalised to DRAQ5, percent activation
Excerpt: RKO Methylation Assay RKO adherent cells were purchased from ATCC (American Type Culture Collection), Manassas, Va., USA. DMEM/Glutamax medium, penicillin-streptomycin, heat inactivated fetal bovine serum, 0.05% trypsin and D-PBS were purchased from Life Technologies, Grand Island, N.Y., USA. Odyssey blocking buffer, 800CW goat anti-rabbit IgG (H+L) antibody, and Licor Odyssey infrared scanner were purchased from Licor Biosciences, Lincoln, Nebr., USA. Mono-methyl arginine antibody was purchased from Cell Signaling Technology, Danvers, Mass., USA. Methanol was purchased from VWR, Franklin, Mass., USA. 10% Tween 20 was purchased from KPL, Inc., Gaithersburg, Md., USA. DRAQ5 was purchased from Biostatus Limited, Leicestershire, UK. […] First, the ratio for each well was determined by: Each plate included fourteen control wells of DMSO only treatment (minimum activation) as well as fourteen control wells for maximum activation treated with 20 μM of a reference compound. The average of the ratio values for each control type was calculated and used to determine the percent activation for each test well in the plate. […] Percent activation was determined and EC30 curves were generated using triplicate wells per concentration of compound.

PRMT1 RGG ICW EC30: 18.49 nM
SMILES: CNCCN(C)Cc1ncsc1[C@H]1CC[C@@]2(CC1)CC(C)(C)CO2 [compound 83]
